Results deposited as PubChem BioAssay AID1508597 (Cure First, 2020)
Purpose: 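Knock-downs altering ovarian cancer cell survival with or without PARP inhibitor rucaparib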 (primary screen). Cell system: human ovarian carcinoma lines grown from tumours: OCI-P5x (papillary serous) and OCI-C5x (clear cell). Reagents: siRNA pool against human genes, 1.25 pmol siRNA per well. Time to read-out: 72 h or 96 h, depending on the cell culture. Conditions: rucaparib 20 µM (about IC30) or vehicle, present until read-out. Rucaparib or vehicle: Rucaparib. Cell line: OCI-C5x (clear cell). Measurement: 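ATP luminescence measured at 72 or 96 h according to the culture, then normalised and expressed as percent viability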. Direction: viability, normalised: higher = more viable cells remaining. Hit rule: 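a well counts as a hit if its normalised viability is under 80 percent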. Calls: active = viability under 80%; inactive = viability 80% or more.
This is a random part of the about 2,100 reagents, in one setting of the screen. 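Calls flag viability under 80% in either arm, not effects specific to rucaparib; the reference for percent is not stated.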 Some reagents were tested in more than one well and are listed for each. No sequences are given here. Not stated in the record: the 100% reference.

| gene | technical replicate | viability, normalised (%) | Outcome |
| --- | --- | --- | --- |
| SNAPC4 (GeneID 6621) | 1 | 38.4 | active |
| SNAPC4 (GeneID 6621) | 2 | 48.7 | active |
| SNAPC4 (GeneID 6621) | 3 | 45.4 | active |
| BUB3 (GeneID 9184) | 1 | 43.8 | active |
| BUB3 (GeneID 9184) | 2 | 38.9 | active |
| BUB3 (GeneID 9184) | 3 | 49.3 | active |
| ASH1L (GeneID 55870) | 1 | 62.4 | active |
| ASH1L (GeneID 55870) | 2 | 75.6 | active |
| ASH1L (GeneID 55870) | 3 | 53.1 | active |
| SETD2 (GeneID 29072) | 1 | 55.3 | active |
| SETD2 (GeneID 29072) | 2 | 40.4 | active |
| SETD2 (GeneID 29072) | 3 | 34.4 | active |
| ZRANB3 (GeneID 84083) | 1 | 75.8 | active |
| ZRANB3 (GeneID 84083) | 2 | 59.4 | active |
| ZRANB3 (GeneID 84083) | 3 | 52.5 | active |
| TBXT (GeneID 6862) | 1 | 57.1 | active |
| TBXT (GeneID 6862) | 2 | 59.2 | active |
| TBXT (GeneID 6862) | 3 | 39.7 | active |
| SIRT2 (GeneID 22933) | 1 | 40 | active |
| SIRT2 (GeneID 22933) | 2 | 35.3 | active |
| SIRT2 (GeneID 22933) | 3 | 27.5 | active |
| DPH2 (GeneID 1802) | 1 | 49.4 | active |
| DPH2 (GeneID 1802) | 2 | 41.6 | active |
| DPH2 (GeneID 1802) | 3 | 36.4 | active |
| THOC1 (GeneID 9984) | 1 | 38.1 | active |
| THOC1 (GeneID 9984) | 2 | 54.3 | active |
| THOC1 (GeneID 9984) | 3 | 49.3 | active |
| DDX6 (GeneID 1656) | 1 | 53.2 | active |
| DDX6 (GeneID 1656) | 2 | 44.7 | active |
| DDX6 (GeneID 1656) | 3 | 45.3 | active |
| TET2 (GeneID 54790) | 1 | 39.2 | active |
| TET2 (GeneID 54790) | 2 | 34.5 | active |
| TET2 (GeneID 54790) | 3 | 30.8 | active |
| ETNK1 (GeneID 55500) | 1 | 86.6 | inactive |
| ETNK1 (GeneID 55500) | 2 | 46.5 | active |
| ETNK1 (GeneID 55500) | 3 | 63 | active |
| PRKAG2 (GeneID 51422) | 1 | 106 | inactive |
| PRKAG2 (GeneID 51422) | 1 | 49.1 | active |
| PRKAG2 (GeneID 51422) | 2 | 57.4 | active |
| PRKAG2 (GeneID 51422) | 2 | 78 | active |
| PRKAG2 (GeneID 51422) | 3 | 41.3 | active |
| PRKAG2 (GeneID 51422) | 3 | 54.8 | active |
| KDM1B (GeneID 221656) | 1 | 55.1 | active |
| KDM1B (GeneID 221656) | 2 | 42.6 | active |
| KDM1B (GeneID 221656) | 3 | 48.6 | active |
| SFPQ (GeneID 6421) | 1 | 46.4 | active |
| SFPQ (GeneID 6421) | 2 | 31.7 | active |
| SFPQ (GeneID 6421) | 3 | 50.6 | active |
| CLDN9 (GeneID 9080) | 1 | 55.5 | active |
| CLDN9 (GeneID 9080) | 2 | 46.2 | active |
| CLDN9 (GeneID 9080) | 3 | 50.3 | active |
| SUZ12 (GeneID 23512) | 1 | 71.4 | active |
| SUZ12 (GeneID 23512) | 2 | 65.9 | active |
| SUZ12 (GeneID 23512) | 3 | 48.7 | active |
| GEN1 (GeneID 348654) | 1 | 84.5 | inactive |
| GEN1 (GeneID 348654) | 2 | 70 | active |
| GEN1 (GeneID 348654) | 3 | 96.4 | inactive |
| IRAK3 (GeneID 11213) | 1 | 59.1 | active |
| IRAK3 (GeneID 11213) | 2 | 65.3 | active |
| IRAK3 (GeneID 11213) | 3 | 63.8 | active |
| G6PC1 (GeneID 2538) | 1 | 53.5 | active |
| G6PC1 (GeneID 2538) | 2 | 44.8 | active |
| G6PC1 (GeneID 2538) | 3 | 59.2 | active |
| PRKAR1A (GeneID 5573) | 1 | 69 | active |
| PRKAR1A (GeneID 5573) | 2 | 69.5 | active |
| PRKAR1A (GeneID 5573) | 3 | 63.6 | active |
| BARD1 (GeneID 580) | 1 | 45.1 | active |
| BARD1 (GeneID 580) | 2 | 60.9 | active |
| BARD1 (GeneID 580) | 3 | 65.1 | active |
| NCOR2 (GeneID 9612) | 1 | 39.2 | active |
| NCOR2 (GeneID 9612) | 2 | 31 | active |
| NCOR2 (GeneID 9612) | 3 | 38.7 | active |
| MAP1B (GeneID 4131) | 1 | 50.5 | active |
| MAP1B (GeneID 4131) | 2 | 40.2 | active |
| MAP1B (GeneID 4131) | 3 | 50.4 | active |

No new results follow: 7 of the entries above.
| gene | technical replicate | viability, normalised (%) | Outcome |
| --- | --- | --- | --- |
| ZRANB3 (GeneID 84083) | 1 | 75.8 | active |
| ZRANB3 (GeneID 84083) | 2 | 59.4 | active |
| ZRANB3 (GeneID 84083) | 3 | 52.5 | active |
| TBXT (GeneID 6862) | 1 | 57.1 | active |
| TBXT (GeneID 6862) | 2 | 59.2 | active |
| TBXT (GeneID 6862) | 3 | 39.7 | active |
| SIRT2 (GeneID 22933) | 1 | 40 | active |
